Measured values as given in patent US20260079169A1, “VOLATILE ORGANIC COMPOUNDS AS MARKERS FOR CELLULAR COMMUNICATION” (Technion Research and Development Foundation Limited, priority 2020, published 2026).

Legend:
[1] = system: A549, H1299, H1975 human lung cancer lines and BEAS-2B normal cell line, each cultured alone; test: VOCs headspace analysis (ITEX GC-MS) of mono-culture groups (Format-1), bulk cell samples 1×10^4 cells; format: cell-based; conditions: bulk 1 × 10^4 cell
[2] = system: different-cell pairs of BEAS-2B, A549, H1299, H1975 without physical contact under a mutual headspace; test: VOCs headspace analysis (ITEX GC-MS) of different-cell pair co-culture headspace groups (Format-3), bulk cell samples; format: cell-based, human; conditions: bulk 1 × 10^4 cell

| Compound | VOC level in headspace, area under curve (AUC) normalized by STD AUC ([1]; A (BEAS-2B) mono-culture) | VOC level in headspace, area under curve (AUC) normalized by STD AUC ([1]; B (A549) mono-culture) | VOC level in headspace, area under curve (AUC) normalized by STD AUC ([1]; C (H1299) mono-culture) | VOC level in headspace, area under curve (AUC) normalized by STD AUC ([1]; D (H1975) mono-culture) | VOC level in headspace, area under curve (AUC) normalized by STD AUC ([2]; A + B (BEAS-2B + A549)) | VOC level in headspace, area under curve (AUC) normalized by STD AUC ([2]; A + C (BEAS-2B + H1299)) | VOC level in headspace, area under curve (AUC) normalized by STD AUC ([2]; A + D (BEAS-2B + H1975)) | VOC level in headspace, area under curve (AUC) normalized by STD AUC ([2]; B + C (A549 + H1299)) | VOC level in headspace, area under curve (AUC) normalized by STD AUC ([2]; B + D (A549 + H1975)) | VOC level in headspace, area under curve (AUC) normalized by STD AUC ([2]; C + D (H1299 + H1975)) |
| --- | --- | --- | --- | --- | --- | --- | --- | --- | --- | --- |
| CCC=C(CC)CC [VOC29] | 7.01 | 0 | 0 | 0 | 2.263 | 1.367 | 1.08 | 0 | 0 | 0 |
| Oc1ccccc1 [VOC30] | 0 | 2.177 | 0 | 3.317 | 5.4575 | 0 | 3.798 | 7.231 | 5.247 | 3.187 |
| CCCCCC(C)CC(C)(C)CC (centres unmarked) [VOC31] | 2.549 | 0 | 1.1004 | 0 | 4.957 | 6.855 | 2.1471 | 0 | 0 | 1.906 |
| CCOC(=O)c1ccc(OCC)cc1 [VOC32] | 0 | 0 | 7.6306 | 0 | 0 | 1.898 | 0 | 3.411 | 0 | 2.638 |
| CCCCCCCCCCCCCC(C)=O [VOC33] | 4.667 | 0 | 0 | 0 | 4.026 | 0 | 7.051 | 0 | 0 | 0 |
| CC(C)(C)c1cc(C=O)cc(C(C)(C)C)c1O [VOC34] | 4.548 | 0 | 0 | 4.362 | 2.218 | 2.389 | 7.375 | 0 | 1.819 | 0 |
| CCCCCCCCCCCCCCCC(C)=O [VOC35] | 0 | 6.902 | 0 | 5.215 | 4.2 | 0 | 2.035 | 0 | 9.132 | 0 |
| N#C/C=C/C#N [VOC36] | 0 | 0 | 7.1158 | 10.52 | 0 | 0 | 0 | 0 | 0 | 4.126 |
| CCCC=C(C)CC [VOC37] | 2.108 | 0 | 0 | 0 | 2.322 | 0 | 0 | 0 | 0 | 0 |
| CC/C=C\CCOC(=O)CC [VOC38] | 0 | 1.564 | 6.18 | 5.232 | 0 | 6.896 | 6.933 | 0 | 4.688 | 7.491 |
| O=COCC(=O)c1ccccc1 [VOC39] | 2.851 | 0 | 0 | 0 | – | 2.841 | 3.772 | 0 | 0 | 0 |
| CC(C)(C)c1cccc(C(C)(C)C)c1 [VOC40] | 5.95 | 8.888 | 0 | 3.324 | 9.491 | 0 | 6.242 | 3.663 | 9.582 | 0 |
| CCCC(C)CC(C)CC (centres unmarked) [VOC41] | 0 | 2.989 | 0 | 2.414 | 2.429 | 0 | 4.767 | 0 | 0 | 3.749 |
| CCOC(=O)C1Oc2ccccc2O1 [VOC42] | 2.984 | 1.403 | 1.699 | 0 | 5.385 | 4.17 | 0 | 5.338 | 0 | 0 |
| CCCCC(C)CCC(C)CCC (centres unmarked) [VOC43] | 1.462 | 1.292 | 0 | – | 9.701 | 0 | 0 | 0 | 3.906 | 0 |
| CCCOC(OCCC)OCCC [VOC44] | 0 | 4.068 | 0 | 0 | 3.9578 | 0 | 0 | 2.1894 | 3.767 | 0 |
